Counter-ions that a name gives are not always drawn. This is one part of the list. Repeats in this data set agree poorly, so a single value says little.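 Human fetal ventral-midbrain neural progenitor line ReNCell VM, differentiated without mitogens. Images stained for doublecortin (early neurons) or tyrosine hydroxylase (dopaminergic neurons) were scored by blinded raters against untreated wells (0 = no change). Repeats and both raters were averaged, and compounds averaging 2 or higher were picked as hits for retesting.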
These compounds were tested on ReNCell VM (assay: dopaminergic neuron differentiation score (TH+ cell fraction vs untreated, manual image score) (score (0 to 3)); higher = more TH+ dopaminergic neuron differentiation). Conditions: library: LOPAC; 2 uM; 4 weeks; BDNF 10 ng/ml + GDNF 10 ng/ml.

Dopaminergic neuron differentiation score, inactive:
CN1[C@@H]2CC[C@H]1C[C@@H](OC(c1ccccc1)c1ccccc1)C2 [Benztropine mesylate] 0
O=C(CCNNC(=O)c1ccncc1)NCc1ccccc1 [Nialamide] 0
COc1cc2nc(N3CCN(C(=O)C4COc5ccccc5O4)CC3)nc(N)c2cc1OC (configuration not stated) [Doxazosin mesylate] 0
CCN(CC)CCCC(C)Nc1ccnc2cc(Cl)ccc12 (configuration not stated) [Chloroquine diphosphate] 0
O=[N+]([O-])c1cc2nc(O)c(O)nc2cc1[N+](=O)[O-] 0
CCOC(=O)[C@]12CC1/C(=N\O)c1ccccc1O2 (some centres not stated) 1
CC(C)(Sc1ccc(CCN(CCCCC2CCCCC2)C(=O)NC2CCCCC2)cc1)C(=O)O 1
Clc1ccccc1C(c1ccccc1)(c1ccccc1)n1ccnc1 [Clotrimazole] 0
COc1cc2c(cc1OC)-c1c/c(=N\c3c(C)cc(C)cc3C)n(C)c(=O)n1CC2 [Trequinsin hydrochloride] 0
O=C(/C=C/c1ccc(O)c(O)c1)OCCc1ccccc1 [Caffeic acid phenethyl ester] 0
CN1CCN(CC(=O)N2c3ccccc3C(=O)Nc3cccnc32)CC1 [Pirenzepine dihydrochloride] 1
NS(=O)(=O)c1cc(C(=O)O)c(NCc2ccco2)cc1Cl [Furosemide] 0
Cc1ccccc1N1C(=O)c2cc(S(N)(=O)=O)c(Cl)cc2NC1C (configuration not stated) [Metolazone] 0
CNC1(C)C2CCC(C2)C1(C)C (configuration not stated) [Mecamylamine hydrochloride] 0
Clc1ccc2c(c1)C(N1CCNCC1)=Nc1ccccc1O2 [Amoxapine] 0
Cc1ccc(O)c(N=Nc2ccccc2)n1 0
C[C@]12C=CC(=O)C=C1CC[C@H]1[C@@H]3C[C@@H](O)[C@](O)(C(=O)CO)[C@@]3(C)C[C@H](O)[C@@]12F [Triamcinolone] 0
CC#CCOC(=O)c1c(C)nc2sc3c(c2c1N)CCC(O)C3 (configuration not stated) 0
C#CCN(C)CCCOc1ccc(Cl)cc1Cl [Clorgyline hydrochloride] 0
NNc1nncc2ccccc12 [Hydralazine hydrochloride] 0
CCOC(=O)[N-]c1c[n+](N2CCOCC2)no1 [Molsidomine] 0
Cc1cccc(C)c1NC(=O)C(C)N (configuration not stated) [Tocainide hydrochloride] 0
CN1CCN(CCCN2c3ccccc3Sc3ccc(C(F)(F)F)cc32)CC1 [Trifluoperazine dihydrochloride] 0
CNCCCC1c2ccccc2C=Cc2ccccc21 [Protriptyline hydrochloride] 0
NCCc1c[nH]cn1 [Histamine dihydrochloride] 0
CC(C)NCC(O)c1ccc(O)c(O)c1 (single isomer, unassigned; (-)) [(-)-Isoproterenol hydrochloride] 0
CCc1cccc2c3c([nH]c12)C(CC)(CC(=O)O)OCC3 (configuration not stated) [Etodolac] 0
Nc1nc(N)c2nc(-c3ccccc3)c(N)nc2n1 [Triamterene] 0
C[N+](C)(C)CCCCCNCC12CC3CC(CC(C3)C1)C2 0
Brc1c(NC2=NCCN2)ccc2nccnc12 0
Nc1nnc(-c2cccc(Cl)c2Cl)c(N)n1 [Lamotrigine] 0
CC[N+](C)(C)c1cccc(O)c1 [Edrophonium chloride] 0

Same assay, conditions: library: Prestwick; 2 uM; 4 weeks; BDNF 10 ng/ml + GDNF 10 ng/ml

Dopaminergic neuron differentiation score, inactive:
CN1[C@@H]2CC[C@H]1C[C@@H](OC(c1ccccc1)c1ccccc1)C2 [Benztropine mesylate] 0
O=C(CCNNC(=O)c1ccncc1)NCc1ccccc1 [Nialamide] 0
COc1cc2nc(N3CCN(C(=O)C4COc5ccccc5O4)CC3)nc(N)c2cc1OC (configuration not stated) [Doxazosin mesylate] 0
CCN(CC)CCCC(C)Nc1ccnc2cc(Cl)ccc12 (configuration not stated) [Chloroquine diphosphate] 0
NC(=O)c1cccnc1 [Nicotinamide] 0
Clc1ccccc1C(c1ccccc1)(c1ccccc1)n1ccnc1 [Clotrimazole] 1
COc1ccccc1OCCNCC(O)COc1cccc2[nH]c3ccccc3c12 (configuration not stated) [Carvedilol] 0
Cc1ccc2c(c1)c1c3n2CCNC3CCC1 (configuration not stated) [Pirlindole mesylate] 0
CN1CCN(CC(=O)N2c3ccccc3C(=O)Nc3cccnc32)CC1 [Pirenzepine dihydrochloride] 0
NS(=O)(=O)c1cc(C(=O)O)c(NCc2ccco2)cc1Cl [Furosemide] 0
Cn1c(=O)c2[nH]cnc2n(C)c1=O [Aminophylline] 0
O=C1CCC(N2C(=O)c3ccccc3C2=O)C(=O)N1 (configuration not stated) [Thalidomide] 0
Cc1ccccc1N1C(=O)c2cc(S(N)(=O)=O)c(Cl)cc2NC1C (configuration not stated) [Metolazone] 0
CNC1(C)C2CCC(C2)C1(C)C (configuration not stated) [Mecamylamine hydrochloride] 0
Clc1ccc2c(c1)C(N1CCNCC1)=Nc1ccccc1O2 [Amoxapine] 0
C[C@]12C=CC(=O)C=C1CC[C@H]1[C@@H]3C[C@@H](O)[C@](O)(C(=O)CO)[C@@]3(C)C[C@H](O)[C@@]12F [Triamcinolone] 0
C#CCN(C)CCCOc1ccc(Cl)cc1Cl [Clorgyline hydrochloride] 0
NNc1nncc2ccccc12 [Hydralazine hydrochloride] 0
CCC(=O)O[C@]1(C(=O)SCF)[C@H](C)C[C@H]2[C@@H]3C[C@H](F)C4=CC(=O)C=C[C@]4(C)[C@@]3(F)[C@@H](O)C[C@@]21C [Fluticasone propionate] 0
CCOC(=O)[N-]c1c[n+](N2CCOCC2)no1 [Molsidomine] 0
Nc1nc(N)nc(-c2cc(Cl)ccc2Cl)n1 [Irsogladine maleate] 0
Cc1cccc(C)c1NC(=O)C(C)N (configuration not stated) [Tocainide hydrochloride] 0
CN1CCN(CCCN2c3ccccc3Sc3ccc(C(F)(F)F)cc32)CC1 [Trifluoperazine dihydrochloride] 0
CNCCCC1c2ccccc2C=Cc2ccccc21 [Protriptyline hydrochloride] 0
CC(C)NCC(O)c1ccc(O)c(O)c1 (single isomer, unassigned; (-)) [(-)-Isoproterenol hydrochloride] 1
CCc1cccc2c3c([nH]c12)C(CC)(CC(=O)O)OCC3 (configuration not stated) [Etodolac] 0
Nc1nc(N)c2nc(-c3ccccc3)c(N)nc2n1 [Triamterene] 0
CCC1=C(C)CN(C(=O)NCCc2ccc(S(=O)(=O)NC(=O)N[C@H]3CC[C@H](C)CC3)cc2)C1=O [Glimepiride] 0
Nc1nnc(-c2cccc(Cl)c2Cl)c(N)n1 [Lamotrigine] 0
CC[N+](C)(C)c1cccc(O)c1 [Edrophonium chloride] 0

Reference: the supplement of paper PMC4635364
